Test results from patent publication US9469643B2, “Polymorphic forms of (S)-2-(1-(9H-purin-6-ylamino)propyl)-5-fluoro-3-phenylquinazolin-4(3H)-one” (GILEAD CALISTOGA LLC, priority 2012, dated 2016).
Some entries share one result that the patent states for a list of compounds.

Assay: Hygroscopicity: moisture adsorption and desorption over a range of humidities
Format: physicochemical
Details: at 90% relative humidity at 25° C.

CC[C@H](Nc1ncnc2[nH]cnc12)c1nc2cccc(F)c2c(=O)n1-c1ccccc1 [Form I, (S)-2-(1-(9H-purin-6-ylamino)propyl)-5-fluoro-3-phenylquinazolin-4(3H)-one]
moisture absorbed: less than 1 wt %
